We go through one sequence from publication PMC11753425.

For at least one entry, the source does not settle the construct or the ends of the probe. At least one verdict was read from the data and is not stated in words by the source. Protein sequences can lack the tags named with them.

The data set addresses T1, OrfGExt (VirB8-like OrfG soluble domain) (Streptococcus thermophilus (ICESt3)) (UniProt Q70CA4).
T1 sequence (looked up): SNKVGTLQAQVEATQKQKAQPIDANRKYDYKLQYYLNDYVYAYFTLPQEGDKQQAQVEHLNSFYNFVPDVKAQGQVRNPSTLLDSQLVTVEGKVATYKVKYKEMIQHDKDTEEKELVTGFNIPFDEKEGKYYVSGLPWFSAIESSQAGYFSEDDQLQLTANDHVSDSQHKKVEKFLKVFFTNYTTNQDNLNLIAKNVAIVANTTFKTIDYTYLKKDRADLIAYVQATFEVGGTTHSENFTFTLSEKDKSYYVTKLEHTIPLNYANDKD
Kind of data set: switchSENSE (conformation and sizing). To be noted: switchSENSE buffer; recombinant protein; residues 64-331; label: fluorophore on the tethered nanolever strand; single-stranded DNA.

As for “GAGACTTCAACCCCCGATTTCTAATAGGGGGGTTACATTTTCAAGATTTAGAAAGTGTGTCACTTTGGTCCAAAAAGTGTGTCACTTAGTCAAAAGGAGATATATCAGCGTTCGATGCTTCCGACTAATCAGCCATATCAGCTTACGACTA [ssOV (ssDNA overhang)]”, the binding result is reported as “binds”.
